Test results taken from PMC10670996.
Results are given in words; binding and its absence hold for the method and conditions named. For some assays here: Binding seen in cells or lysates may run through a third protein. Some results given as binding are weak or reduced against the parent protein; the word gives no strength. Blank lines part the entries; values can stand above or below the substance they belong to.

Amino acid sequences for entries named in this document (tags omitted).
UniProt P0DMB2: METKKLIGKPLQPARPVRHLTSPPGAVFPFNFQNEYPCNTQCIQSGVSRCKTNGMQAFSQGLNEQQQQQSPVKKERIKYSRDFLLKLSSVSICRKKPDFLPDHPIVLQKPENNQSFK
UniProt P06730: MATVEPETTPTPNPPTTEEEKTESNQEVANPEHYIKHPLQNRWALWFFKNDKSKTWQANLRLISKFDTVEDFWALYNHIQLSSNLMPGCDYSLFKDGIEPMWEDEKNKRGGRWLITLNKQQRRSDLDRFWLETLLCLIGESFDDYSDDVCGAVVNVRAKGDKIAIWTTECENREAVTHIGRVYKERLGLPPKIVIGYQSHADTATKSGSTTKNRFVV

Columns and labels:
[1] = molecular target: Flag-C8ORF88 (HEK293T) (not stated (human or mouse cDNA cloned)) (UniProt P0DMB2); assay: co-IP; lysates (NP40 lysis buffer) of transfected HEK293T, 24 h post-transfection; anti-FLAG M2 magnetic beads 1 h on ice, 5 washes; blots anti-DDDDK and anti-eIF4E
[2] = molecular target: Endogenous eIF4E (human (endogenous in HEK293T)) (UniProt P06730); assay: pull-down; m7GTP cap-affinity chromatography of lysates (NP40 lysis buffer) of transfected HEK293T; LCB washes, 500 µM GTP washes, eluted with 500 µM m7GTP; blots anti-DDDDK and anti-eIF4E
[3] = molecular target: eIF4E (in vitro translated) (UniProt P06730); assay: pull-down; m7GTP cap-affinity chromatography of wheat germ translations ([35S]-methionine; each mRNA co-translated with eIF4E mRNA); resin 2 h 4 °C, LCB Buffer (20 mM Hepes pH 7.5, 0.1 M KCl, 0.2 mM EDTA) washes, 500 µM GTP washes, eluted with 500 µM m7GTP; autoradiography
His-eIF4E = His-eIF4E (UniProt P06730); assay: pull-down; cap-pulldown on m7GTP agarose of recombinant His-eIF4E (2.5 µg) with GST protein (0.5 µg) in 50 µL LCB Buffer, 1 h RT, then resin, GTP washes, m7GTP elution; blots anti-GST and anti-His (Figure S2); both purified
[4] = molecular target: GST-C8ORF88 (not stated (human or mouse cDNA cloned)) (UniProt P0DMB2); assay: pull-down; GST pulldown: 2.5 µg GST protein with 0.5 µg His-eIF4E or His-eIF4E(W73A) in 50 µL Binding Buffer (20 mM Tris pH 7.5, 100 mM KCl, 10% glycerol, 0.1% NP-40), 1 h room temperature; Glutathione Sepharose 1 h on ice; eluted with 10 mM reduced glutathione; blots anti-GST and anti-His; both purified

binding [1]: binds
Substance: Endogenous eIF4E (from UniProt P06730 1-217)

binding [2]: binds
Substance: Flag-C8ORF88 (HEK293T) (from UniProt P0DMB2 1-117)

binding [3]: binds
Substance: Flag-C8ORF88 (in vitro translated) (from UniProt P0DMB2 1-117)

binding (His-eIF4E): binds
Substance: GST-C8ORF88 (from UniProt P0DMB2 1-117)

binding [4]: binds
Substance: His-eIF4E (from UniProt P06730 1-217)
